Laboratory results: PubChem BioAssay AID1224828 (NIAID, 2016)
Shown is an unselected part of about 17,000 deposited reagents. Over the whole deposit, 762 (4.5%) are marked active. 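Active calls include both raised and lowered p65 entry, mostly lowered; wells with fewer than 50 cells lack a z-score.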 Raw values are not corrected between plates. Unmarked entries are inactive.

Purpose: 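Knock-downs that increase or decrease LPS-induced p65 nuclear translocation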 (primary screen)
System: mouse RAW264.7 G9 macrophage reporter cells (GFP-p65, Tnf promoter-mCherry)
Reagents: siRNA pool against mouse genes, 100 nM
Duration: 2 days siRNA transfection, then 40 min LPS before fixation
Treatment: LPS (Salmonella minnesota R595) at 10 ng/ml
Measurement: 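Microscopy ratio of nuclear to perinuclear-ring GFP-p65 signal, scaled to the plate median; gene score is the average of two replicate robust z-scores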
Direction: p65 translocation robust z-score: higher = more nuclear NF-kappaB p65 after LPS than the plate median; nuclear/cytoplasmic p65 ratio: higher = more nuclear NF-kappaB p65
Active means: 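Called active when z exceeds 3.3 or falls under -1.56 (median of Tlr4 controls), giving activity score of at least 50; no calls for control wells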
Meaning of the calls: active = hit (p65 shift raised or lowered); inactive = no clear change

gene knocked down	p65 translocation robust z-score	nuclear/cytoplasmic p65 ratio, rep 1	nuclear/cytoplasmic p65 ratio, rep 2	low cell count flag
Rtl1 (GeneID 353326)	0.59	1.55	1.24	enough cells to score
Il1r1 (GeneID 16177)	-0.36	1.38	1.37	enough cells to score
Pank1 (GeneID 75735)	-1.5	1.7	1.19	enough cells to score
Sec61g (GeneID 20335)	-0.47	1.5	1.2	enough cells to score
Dyrk4 (GeneID 101320)	-0.23	1.77	1.26	enough cells to score
B3gnt3 (GeneID 72297)	-0.03	1.62	1.6	enough cells to score
Rsbn1 (GeneID 229675)		1.22	1.33	fewer than 50 cells per well; well left out of scoring
Stap1 (GeneID 56792)	0.15	1.69	1.6	enough cells to score
Gpr108 (GeneID 78308)	1.33	1.58	1.75	enough cells to score
Hdgf (GeneID 15191)	0.58	1.56	1.41	enough cells to score
Psmd14 (GeneID 59029)		1.45	1.34	fewer than 50 cells per well; well left out of scoring
Mcm10 (GeneID 70024)	-1.48	1.49	1.33	enough cells to score
Cbx4 (GeneID 12418)	-0.67	1.38	1.28	enough cells to score
Or51h5 (GeneID 259093)		1.36	1.28	fewer than 50 cells per well; well left out of scoring
Agtr1a (GeneID 11607)	-0.29	1.47	1.73	enough cells to score
A930018M24Rik (GeneID 328399)	-0.58	1.44	1.45	enough cells to score
Eef1a1 (GeneID 13627)	-1.25	1.31	1.19	enough cells to score
Abtb2 (GeneID 99382)	0.13	1.47	1.69	enough cells to score
Acsm3 (GeneID 20216)		1.8	1.66	fewer than 50 cells per well; well left out of scoring
Spp1 (GeneID 20750)	0.04	1.44	1.22	enough cells to score
Arap3 (GeneID 106952)		1.31	1.37	fewer than 50 cells per well; well left out of scoring
P3h1 (GeneID 56401)	1.86	2.03	1.79	enough cells to score
Kcnj3 (GeneID 16519)	0.49	1.66	1.57	enough cells to score
Or1j21 (GeneID 18350)		1.14	1.14	fewer than 50 cells per well; well left out of scoring
Or52z14 (GeneID 259080)	-0.14	1.45	1.25	enough cells to score
Rbm19 (GeneID 74111)	-0.5	1.27	1.41	enough cells to score
Rgl2 (GeneID 19732)	0.94	1.63	1.67	enough cells to score
Cryzl1 (GeneID 66609)	-0.01	1.55	1.31	enough cells to score
Ddx5 (GeneID 13207)	-1.56	1.28	1.35	enough cells to score
Kcnn3 (GeneID 140493)	0.53	1.51	1.49	enough cells to score
Or1j20 (GeneID 258942)	-1.13	1.41	1.3	enough cells to score
Lrrc4c (GeneID 241568)	0.87	1.54	1.59	enough cells to score
Siglec1 (GeneID 20612)		1.24	1.19	fewer than 50 cells per well; well left out of scoring
Os9 (GeneID 216440)		1.16	1.31	fewer than 50 cells per well; well left out of scoring
Tdrd6 (GeneID 210510)	0.44	1.59	1.24	enough cells to score
Mrpl20 (GeneID 66448)	0.94	1.94	1.73	enough cells to score
Kpna2 (GeneID 16647)	-0.96	1.3	1.3	enough cells to score
Kcnd3 (GeneID 56543)	0.35	1.55	1.4	enough cells to score
Adi1 (GeneID 104923)	-0.57	1.53	1.58	enough cells to score
Herpud2 (GeneID 80517)		1.33	1.34	fewer than 50 cells per well; well left out of scoring

Ordered by “nuclear/cytoplasmic p65 ratio, rep 2” (ascending): 6 of the entries above.
gene knocked down	p65 translocation robust z-score	nuclear/cytoplasmic p65 ratio, rep 1	nuclear/cytoplasmic p65 ratio, rep 2	low cell count flag
Spp1 (GeneID 20750)	0.04	1.44	1.22	enough cells to score
Arap3 (GeneID 106952)		1.31	1.37	fewer than 50 cells per well; well left out of scoring
Kcnj3 (GeneID 16519)	0.49	1.66	1.57	enough cells to score
Acsm3 (GeneID 20216)		1.8	1.66	fewer than 50 cells per well; well left out of scoring
Abtb2 (GeneID 99382)	0.13	1.47	1.69	enough cells to score
P3h1 (GeneID 56401)	1.86	2.03	1.79	enough cells to score
